Source: paper PMC5472179 (Nature Communications, 2017)
No constants are given. Whether binding was seen depends on the method and setting. For some of these results: Binding seen in cells or lysates may run through a third protein. Some results given as binding are weak or reduced against the parent protein; the word gives no strength.

Tests used:
[1] = biological target: WT HA-eNP full length (Ebola virus (EBOV)) (UniProt P18272); assay: co-IP
[2] = biological target: eNP 564-739 (Ebola virus (EBOV)) (UniProt L7QI51); assay: SEC; both purified
[3] = biological target: eNP 590-739 (Ebola virus (EBOV)) (UniProt L7QI51); assay: SEC; both purified
[4] = biological target: MBP-eNP 437-739 (Ebola virus (EBOV)) (UniProt L7QI51); assay: pull-down; only the target purified
[5] = biological target: MBP-eNP 590-739 (Ebola virus (EBOV)) (UniProt L7QI51); assay: pull-down; only the target purified
[6] = biological target: MBP-eNP 564-739 (Ebola virus (EBOV)) (UniProt L7QI51); assay: pull-down; only the target purified
[7] = biological target: MBP-eNP 600-739 (Ebola virus (EBOV)) (UniProt L7QI51); assay: pull-down; only the target purified
[8] = biological target: eNP 600-739 (Ebola virus (EBOV)) (UniProt L7QI51); assay: SEC; both purified

WT FLAG-eVP30 full length (from UniProt Q05323 1-288)
binding [1]: binds

eVP30 69-288 (from UniProt Q05323 69-288) (domain or fragment)
binding [2]: binds
binding [3]: binds
binding [4]: binds
binding [5]: binds
binding [6]: binds
binding [7]: binds

eVP30 89-288 (from UniProt Q05323 89-288) (domain or fragment)
binding [8]: binds
binding [2]: binds

eVP30 110-272 (from UniProt Q05323 110-272) (domain or fragment)
binding [8]: binds
